Reference: patent US7943140B2, “Compositions and methods for the treatment and prophylaxis of multiple strains and subtypes of HIV-1” (priority 2006, dated 2011)
Some results were stated once for a whole list of compounds, not compound by compound.

System: HIV-1 Tat (rTat, AA 1-72 variants)
Experiment: Anti-Tat serum antibody titer (ELISA on rTat) after immunization of mice
Format: in vivo, mouse
Conditions: no added adjuvant, on two rTats with REK and NEN epitope variants, FIG. 1
Method: Immunogens prepared as described in Example 1 were taken up in buffered saline and injected IP in mice and rats, and SC in rabbits. Unless otherwise stated mice were immunized IP with 1 mg of Immunogen at Day 0 and Week 2 and serums were obtained at Week 4 for titration. Other regimens and species were as noted in the figures.
Serums were assayed to determine anti-Tat titers by conventional ELISA methods. Briefly, Maxisorp Immuno plates were coated with 2 ng/well rTat and incubated at 22° C. for 1 hour or 4° C. overnight. After thorough washing with 0.1% triton X 100 buffer, blocking with 1% bovine serum albumin (BSA) and rewashing, serum dilutions were applied and incubated at 22° C. for 1 hour. After incubation, the plates were thoroughly washed with triton-X 100 buffer again and 1/10,000 goat anti-mouse IgG-horseradish peroxidase (HRP) conjugate (or the appropriate reagent for rat or rabbit) was applied. The plates were then incubated for 1 hour at 22° C. then washed thoroughly and developed with ABTS for 45 minutes at room temperature on a shaker table. Absorbance was measured at 405 nm. Control wells lacking serum were measured and the titration endpoint was the reciprocal of the […] dilution with an OD greater than mean+8 SDs.
Animals were purchased from Harlan Laboratories and acclimated at Molecular Diagnostic Services, Inc., for at least one week before immunization. […]

Substance	anti-Tat antibodies geometric mean titers (GMT)
Pam2C-SSQYIKANSKFIGITELSVDP-(R/K/N/S)-L-(E/D)-P-W-(K/N)-H-P-G-S-amide [Pam2-QYIK-TEP1]	> 50,000
Pam3C-SSQYIKANSKFIGITELSVDP-(R/K/N/S)-L-(E/D)-P-W-(K/N)-H-P-G-S-amide [Pam3-QYIK-TEP1]	> 50,000
